{
  "source": "paper PMC6089501",
  "about": "(Journal of Medicinal Chemistry, 2018)",
  "test": "in vitro",
  "details": "dog, MDCK-MDR1",
  "data": [
    {"compound": "CC(C)NCC(O)COc1ccc(CC(N)=O)cc1", "note": "(centres unmarked) [Atenolol, reference compound]", "values": [
      {"measurement": "Papp A→B", "result": 1, "unit": "×10⁻⁶ cm/s"},
      {"measurement": "Papp B→A", "result": 1, "unit": "×10⁻⁶ cm/s"}
    ]}
  ]
}
